The source gives many values for each of these; only a part stands here.
System: moderate-to-severe chronic spontaneous urticaria (CSU)
Assay: Phase 2 CSU study: urticaria activity score over 7 days (UAS7)
Assay type: in vivo, human
Design: key to UAS7 Change from baseline LS Mean (SE): UAS7 points; daily UAS score ranges 0–6 points/day, over 7 days
Conditions: for UAS7 % Change difference for rilzabrutinib vs. placebo LS Mean (95% CI) / UAS7 % Change from baseline LS Mean (SE) / UAS7 Change difference for rilzabrutinib vs. placebo LS Mean (95% CI) / UAS7 Change from baseline LS Mean (SE): Omalizumab-Naïve Population; for Change from Baseline in UAS7 at Week 12: LS Mean Diff vs. placebo (95% CI): Omalizumab-Naïve, Age group (years) ≥65
Source text: The study comprises a 12 week, randomized, double-blind, placebo-controlled, multi-center, dose-ranging efficacy and safety phase, followed by a 40 week open label extension (OLE) phase (see FIG. 1). The study consists of three phases and an optional OLE phase. […] Clinically, CSU is characterized by the spontaneous and recurrent appearance of pruritic hives. The proposed primary endpoints were the UAS7 at Week 12 in EU and EU reference countries and the ISS7 in the US. Regardless of where a participant was from, all assessments were the same. The UAS7 score is a composite score containing both the HSS7 and the ISS7. This allowed a global assessment of the two key components of urticaria: hives and itch. […] The UAS is a validated PRO measure. […] The daily UAS scores range from 0 to 6 point/day. […] Patients were to complete the UAS using the e-diary. […] The following secondary endpoints were to be analyzed using the same approach as for the primary endpoint: • Change from baseline in UAS7 at Week 4 • Change from baseline in UAS7 at Week 12 (for US and US reference countries) • Change from baseline in ISS7 at Week 12 (except US and US reference countries) • Change from baseline in HSS7 at Week 12 The following responder secondary endpoints were to be analyzed using the Cochran-Mantel-Haenszel test adjusted by region: • Proportion of participants with UAS7<6 at Week 12 • Proportion of participants with UAS7=0 at Week 12 Participants who received selected prohibited medications and/or rescue medications were to be considered as non-responders for time points after the medication usage. For other participants, all available data including those collected during the off-treatment period were to be used to determine the responder/non-responder status. Missing data were to be considered as non-responders.

CC(C)(C=C(C#N)C(=O)N1CCC[C@@H](n2nc(-c3ccc(Oc4ccccc4)cc3F)c3c(N)ncnc32)C1)N1CCN(C2COC2)CC1 [rilzabrutinib, (R)-2-[3-[4-amino-3-(2-fluoro-4-phenoxy-phenyl)pyrazolo[3,4-d]pyrimidin-1-yl]piperidine-1-carbonyl]-4-methyl-4-[4-(oxetan-3-yl)piperazin-1-yl]pent-2-enenitrile]
UAS7 % Change difference for rilzabrutinib vs. placebo LS Mean (95% CI) (400 mg BID, Week 8): −22.63% | UAS7 % Change from baseline LS Mean (SE) (400 mg BID, Week 8): −53.47 (6.30) % | UAS7 Change difference for rilzabrutinib vs. placebo LS Mean (95% CI) (400 mg BID, Week 8): −5.54 | UAS7 Change from baseline LS Mean (SE) (400 mg BID, Week 8): −15.47 (1.87) | UAS7 % Change difference for rilzabrutinib vs. placebo LS Mean (95% CI) (400 mg BID, Week 9): −25.82% | UAS7 % Change from baseline LS Mean (SE) (400 mg BID, Week 9): −52.38 (6.34) % | UAS7 Change difference for rilzabrutinib vs. placebo LS Mean (95% CI) (400 mg BID, Week 9): −6.16 | UAS7 Change from baseline LS Mean (SE) (400 mg BID, Week 9): −14.84 (1.91) | UAS7 % Change difference for rilzabrutinib vs. placebo LS Mean (95% CI) (400 mg BID, Week 10): −21.17% | UAS7 % Change from baseline LS Mean (SE) (400 mg BID, Week 10): −51.13 (6.68) % | UAS7 Change difference for rilzabrutinib vs. placebo LS Mean (95% CI) (400 mg BID, Week 10): −5.22 | UAS7 Change from baseline LS Mean (SE) (400 mg BID, Week 10): −14.89 (2.00) | UAS7 % Change difference for rilzabrutinib vs. placebo LS Mean (95% CI) (400 mg BID, Week 11): −21.65% | UAS7 % Change from baseline LS Mean (SE) (400 mg BID, Week 11): −49.86 (6.78) % | UAS7 Change difference for rilzabrutinib vs. placebo LS Mean (95% CI) (400 mg BID, Week 11): −5.29 | UAS7 Change from baseline LS Mean (SE) (400 mg BID, Week 11): −14.56 (1.97) | UAS7 % Change difference for rilzabrutinib vs. placebo LS Mean (95% CI) (400 mg QPM, Week 5): 0.93% | UAS7 % Change from baseline LS Mean (SE) (400 mg QPM, Week 5): −31.92 (5.50) % | UAS7 Change difference for rilzabrutinib vs. placebo LS Mean (95% CI) (400 mg QPM, Week 5): 0.36 | UAS7 Change from baseline LS Mean (SE) (400 mg QPM, Week 5): −10.08 (1.67) | UAS7 % Change difference for rilzabrutinib vs. placebo LS Mean (95% CI) (400 mg QPM, Week 6): −6.75% | UAS7 % Change from baseline LS Mean (SE) (400 mg QPM, Week 6): −33.30 (6.14) % | UAS7 Change difference for rilzabrutinib vs. placebo LS Mean (95% CI) (400 mg QPM, Week 6): −1.28 | UAS7 % Change difference for rilzabrutinib vs. placebo LS Mean (95% CI) (400 mg QPM, Week 7): −5.67% | UAS7 % Change from baseline LS Mean (SE) (400 mg QPM, Week 7): −34.23 (5.85) % | UAS7 Change difference for rilzabrutinib vs. placebo LS Mean (95% CI) (400 mg QPM, Week 7): −1.12 | UAS7 Change from baseline LS Mean (SE) (400 mg QPM, Week 7): −10.55 (1.74) | UAS7 % Change difference for rilzabrutinib vs. placebo LS Mean (95% CI) (400 mg QPM, Week 8): −3.78% | UAS7 % Change from baseline LS Mean (SE) (400 mg QPM, Week 8): −34.61 (6.22) % | UAS7 Change difference for rilzabrutinib vs. placebo LS Mean (95% CI) (400 mg QPM, Week 8): −0.47 | UAS7 Change from baseline LS Mean (SE) (400 mg QPM, Week 8): −10.40 (1.83) | UAS7 % Change difference for rilzabrutinib vs. placebo LS Mean (95% CI) (400 mg QPM, Week 9): −9.34% | UAS7 % Change from baseline LS Mean (SE) (400 mg QPM, Week 9): −35.89 (6.15) % | UAS7 Change difference for rilzabrutinib vs. placebo LS Mean (95% CI) (400 mg QPM, Week 9): −2.36 | UAS7 Change from baseline LS Mean (SE) (400 mg QPM, Week 9): −11.03 (1.86) | UAS7 % Change difference for rilzabrutinib vs. placebo LS Mean (95% CI) (400 mg QPM, Week 10): −7.06% | UAS7 % Change from baseline LS Mean (SE) (400 mg QPM, Week 10): −37.03 (6.40) % | UAS7 Change difference for rilzabrutinib vs. placebo LS Mean (95% CI) (400 mg QPM, Week 10): −1.58 | UAS7 Change from baseline LS Mean (SE) (400 mg QPM, Week 10): −11.25 (1.92) | UAS7 % Change difference for rilzabrutinib vs. placebo LS Mean (95% CI) (400 mg QPM, Week 11): −7.47% | UAS7 % Change from baseline LS Mean (SE) (400 mg QPM, Week 11): −35.67 (6.65) % | UAS7 Change difference for rilzabrutinib vs. placebo LS Mean (95% CI) (400 mg QPM, Week 11): −1.36 | UAS7 Change from baseline LS Mean (SE) (400 mg QPM, Week 11): −10.63 (1.93) | UAS7 % Change difference for rilzabrutinib vs. placebo LS Mean (95% CI) (400 mg TID, Week 5): −19.17% | UAS7 % Change from baseline LS Mean (SE) (400 mg TID, Week 5): −52.02 (5.69) % | UAS7 % Change difference for rilzabrutinib vs. placebo LS Mean (95% CI) (400 mg TID, Week 6): −24.10% | UAS7 % Change from baseline LS Mean (SE) (400 mg TID, Week 6): −50.65 (6.35) % | UAS7 Change difference for rilzabrutinib vs. placebo LS Mean (95% CI) (400 mg TID, Week 6): −5.94 | UAS7 Change from baseline LS Mean (SE) (400 mg TID, Week 6): −15.12 (1.90) | UAS7 % Change difference for rilzabrutinib vs. placebo LS Mean (95% CI) (400 mg TID, Week 7): −24.35% | UAS7 % Change from baseline LS Mean (SE) (400 mg TID, Week 7): −52.91 (6.13) % | UAS7 Change difference for rilzabrutinib vs. placebo LS Mean (95% CI) (400 mg TID, Week 7): −6.37 | UAS7 Change from baseline LS Mean (SE) (400 mg TID, Week 7): −15.80 (1.80) | UAS7 % Change difference for rilzabrutinib vs. placebo LS Mean (95% CI) (400 mg TID, Week 8): −20.07% | UAS7 % Change from baseline LS Mean (SE) (400 mg TID, Week 8): −50.90 (6.49) % | UAS7 Change difference for rilzabrutinib vs. placebo LS Mean (95% CI) (400 mg TID, Week 8): −5.11 | UAS7 Change from baseline LS Mean (SE) (400 mg TID, Week 8): −15.04 (1.96) | UAS7 % Change difference for rilzabrutinib vs. placebo LS Mean (95% CI) (400 mg TID, Week 9): −25.99% | UAS7 % Change from baseline LS Mean (SE) (400 mg TID, Week 9): −52.54 (6.34) % | UAS7 Change difference for rilzabrutinib vs. placebo LS Mean (95% CI) (400 mg TID, Week 9): −7.07 | UAS7 Change from baseline LS Mean (SE) (400 mg TID, Week 9): −15.75 (1.93) | UAS7 % Change difference for rilzabrutinib vs. placebo LS Mean (95% CI) (400 mg TID, Week 10): −24.83% | UAS7 Change difference for rilzabrutinib vs. placebo LS Mean (95% CI) (400 mg TID, Week 10): −6.54 | UAS7 Change from baseline LS Mean (SE) (400 mg TID, Week 10): −16.20 (1.97) | UAS7 % Change difference for rilzabrutinib vs. placebo LS Mean (95% CI) (400 mg TID, Week 11): −25.26% | UAS7 % Change from baseline LS Mean (SE) (400 mg TID, Week 11): −53.47 (6.81) % | UAS7 Change difference for rilzabrutinib vs. placebo LS Mean (95% CI) (400 mg TID, Week 11): −6.58 | UAS7 Change from baseline LS Mean (SE) (400 mg TID, Week 11): −15.86 (1.96) | UAS7 % Change difference for rilzabrutinib vs. placebo LS Mean (95% CI) (400 mg TID, Week 12): −26.61% | UAS7 % Change from baseline LS Mean (SE) (400 mg TID, Week 12): −56.89 (6.92) % | UAS7 Change difference for rilzabrutinib vs. placebo LS Mean (95% CI) (400 mg TID, Week 12): −6.75 | UAS7 Change from baseline LS Mean (SE) (400 mg TID, Week 12): −16.89 (2.04) | Change from Baseline in UAS7 at Week 12: LS Mean Diff vs. placebo (95% CI) (400 mg BID): −23.31 (−51.77, 5.15) | Change from Baseline in UAS7 at Week 12: LS Mean Diff vs. placebo (95% CI) (400 mg TID): −25.27 (−49.57, −0.97)

Reference: patent publication US20260256792A1, “TREATMENT OF CHRONIC SPONTANEOUS URTICARIA BY ADMINISTERING (R)-2-[3-[4-AMINO-3-(2-FLUORO-4-PHENOXY-PHENYL)PYRAZOLO[3,4-D]PYRIMIDIN-1-YL]PIPERIDINE-1-CARBONYL]-4-METHYL-4-[4-(OXETAN-3-YL)PIPERAZIN-1-YL]PENT-2-ENENITRILE” (priority 2023, published 2026)
